In patent US20200061153A1 (BAYLOR COLLEGE OF MEDICINE, published 2020):
No constants are given. Whether binding was seen depends on the method and setting. Some binding calls cover weakened binding; strength is not graded here. For part of these data: Where a sequence is shown, tags or fusion partners need not be part of it. Blank lines part the entries; values can stand above or below the molecule they belong to.

Sequences of proteins named here, by UniProt entry; tags and fusion partners are left off. A change or cut given only in a name is not applied to a line headed by its entry. Residues count along the entry.
UniProt P16109, residues 42-771: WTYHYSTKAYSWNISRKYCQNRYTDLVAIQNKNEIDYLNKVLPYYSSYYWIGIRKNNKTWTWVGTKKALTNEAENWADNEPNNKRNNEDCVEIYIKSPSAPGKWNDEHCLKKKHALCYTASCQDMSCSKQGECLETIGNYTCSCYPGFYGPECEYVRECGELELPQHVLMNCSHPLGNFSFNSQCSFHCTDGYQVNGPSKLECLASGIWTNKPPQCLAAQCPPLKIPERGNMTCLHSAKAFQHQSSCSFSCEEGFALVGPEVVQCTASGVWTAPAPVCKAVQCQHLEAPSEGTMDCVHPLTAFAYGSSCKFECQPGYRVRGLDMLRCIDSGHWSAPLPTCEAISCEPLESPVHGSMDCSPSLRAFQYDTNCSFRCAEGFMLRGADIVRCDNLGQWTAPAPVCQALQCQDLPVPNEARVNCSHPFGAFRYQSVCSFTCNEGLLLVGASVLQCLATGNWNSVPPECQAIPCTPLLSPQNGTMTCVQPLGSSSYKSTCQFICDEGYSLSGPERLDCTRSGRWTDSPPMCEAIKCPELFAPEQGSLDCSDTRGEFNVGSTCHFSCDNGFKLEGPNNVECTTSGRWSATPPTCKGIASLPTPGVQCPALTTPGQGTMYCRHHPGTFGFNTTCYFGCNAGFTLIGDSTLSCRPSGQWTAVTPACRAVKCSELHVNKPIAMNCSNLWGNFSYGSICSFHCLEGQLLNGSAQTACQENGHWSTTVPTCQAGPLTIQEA
UniProt P08670: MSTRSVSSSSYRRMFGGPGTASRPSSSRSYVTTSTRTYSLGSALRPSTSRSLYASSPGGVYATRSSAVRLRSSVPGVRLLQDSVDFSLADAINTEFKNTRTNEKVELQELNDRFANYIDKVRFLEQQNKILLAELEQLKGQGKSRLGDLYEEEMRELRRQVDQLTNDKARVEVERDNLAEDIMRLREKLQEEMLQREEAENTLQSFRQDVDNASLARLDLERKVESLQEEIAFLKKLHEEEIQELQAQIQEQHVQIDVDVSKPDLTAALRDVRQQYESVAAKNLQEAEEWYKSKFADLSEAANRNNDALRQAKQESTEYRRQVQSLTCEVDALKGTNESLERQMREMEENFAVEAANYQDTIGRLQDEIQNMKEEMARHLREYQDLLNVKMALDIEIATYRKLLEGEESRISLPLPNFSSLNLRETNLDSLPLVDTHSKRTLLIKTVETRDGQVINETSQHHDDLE

Assays:
[1] = molecular target: P-selectin/Fc chimeric protein (UniProt P16109); assay: ELISA (FIG. 15C)
[2] = molecular target: P-selectin/Fc chimeric protein (UniProt P16109); assay: ELISA, wells coated with P-selectin/Fc 10 µg/mL, HRP anti-polyhistidine detection
[3] = molecular target: P-selectin/Fc chimeric protein (UniProt P16109); assay: ELISA, wells coated with P-selectin/Fc 10 µg/mL in DPBS, blocked with 1% BSA, rhVim added at rising concentrations, detection with HRP-conjugated anti-polyhistidine antibody
[4] = molecular target: P-selectin/Fc chimeric protein (UniProt P16109); assay: summary of SPR of Example 1
[5] = molecular target: P-selectin/Fc chimeric protein (UniProt P16109); assay: SPR (BIACore), response (RU) against concentration (M); text: binding to immobilized P-sel/Fc, IgG as control
[6] = molecular target: P-selectin/Fc chimeric protein (UniProt P16109); assay: SPR (BIACore) (FIG. 6C)
[7] = molecular target: P-selectin/Fc chimeric protein (UniProt P16109); assay: summary of ELISA and SPR of Example 1
[8] = molecular target: P-selectin/Fc chimeric protein (UniProt P16109); assay: ELISA binding saturation curve (FIG. 6B)
[9] = molecular target: P-selectin/Fc chimeric protein (UniProt P16109); assay: ELISA, wells coated with P-selectin/Fc 10 µg/mL, anti-His/HRP detection
[10] = molecular target: P-selectin/Fc chimeric protein (UniProt P16109); assay: ELISA, wells coated with P-selectin/Fc 10 µg/mL, srhVim added at rising concentrations, detection with anti-His/HRP
[11] = molecular target: recombinant human vimentin (rhVim), expressed from pQE-30 in E. coli M15 (human) (UniProt P08670); assay: BLI, rhVim immobilized
[12] = molecular target: recombinant human vimentin (rhVim), expressed from pQE-30 in E. coli M15 (human) (UniProt P08670); assay: SPR (BIACore), rhVim immobilized
[13] = molecular target: recombinant human vimentin (rhVim), expressed from pQE-30 in E. coli M15 (human) (UniProt P08670); assay: BLI (Octet Red 384), rhVim immobilized on amine reactive sensors
[14] = molecular target: recombinant human vimentin (rhVim), expressed from pQE-30 in E. coli M15 (human) (UniProt P08670); assay: SPR (BIACore), rhVim immobilized on CM5 chip; the text says there was no binding

Molecule: recombinant human vimentin (rhVim), expressed from pQE-30 in E. coli M15 (from UniProt P08670 2-466)
binding [1]: binds | binding [2]: binds | binding [3]: binds

Molecule: P-selectin/Fc chimeric protein (from UniProt P16109 42-771) (Fc fusion)
binding [11]: binds | binding [12]: binds

Other lines, results leading:

binding [4]: binds | binding [5]: binds
Molecule: rod domain of human vimentin (amino acids 96-407), expressed from pET30 in E. coli (from UniProt P08670 96-407)

binding [6]: binds | binding [7]: binds | binding [8]: binds | binding [9]: binds | binding [5]: binds | binding [10]: binds
Molecule: soluble recombinant human vimentin (srhVim), full length, expressed from pET30 in E. coli (from UniProt P08670 2-466)

binding [13]: no binding (tested: 0-1,000 nM) | binding [14]: no binding (tested: 10-1,000 nM)
B1: E-selectin/Fc (Fc fusion, UniProt P16581 22-556, looked up, not shown: a dimerising Fc or GST)
chain: WSYNTSTEAMTYDEASAYCQQRYTHLVAIQNKEEIEYLNSILSYSPSYYWIGIRKVNNVWVWVGTQKPLTEEAKNWAPGEPNNRQKDEDCVEIYIKREKDVGMWNDERCSKKKLALCYTAACTNTSCSGHGECVETINNYTCKCDPGFSGLKCEQIVNCTALESPEHGSLVCSHPLGNFSYNSSCSISCDRGYLPSSMETMQCMSSGEWSAPIPACNVVECDAVTNPANGFVECFQNPGSFPWNTTCTFDCEEGFELMGAQSLQCTSSGNWDNEKPTCKAVTCRAVRQPQNGSVRCSHSPAGEFTFKSSCNFTCEEGFMLQGPAQVECTTQGQWTQQIPVCEAFQCTALSNPERGYMNCLPSASGSFRYGSSCEFSCEQGFVLKGSKRLQCGPTGEWDNEKPTCEAVRCDAVHQPPKGLVRCAHSPIGEFTYKSSCAFSCEEGFELHGSTQLECTSQGQWTEEVPSCQVVKCSSLAVPGKINMSCSGEPVFGTVCKFACPEGWTLNGSAARTCGATGHWSGLLPTCEAPTESNIP
